What follows is the remainder of the data, with few or none of the targets with a hit. The data scatter; read single values as rough. The list shows a part of the results, in another mix than the full data.
Compound: COC(=O)/C=C/c1ccccc1 [methyl cinnamate]
Assay: log2 ratio of iodoacetamide-alkyne labeling of the cysteine site, DMSO over compound (competition); higher = stronger covalent engagement of the cysteine by the compound, active = 1 or more
Conditions: 500 µM; treatment time 1 h; system: HEK293T cell lysate
Method in brief: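 HEK293T lysate at 2 mg/mL was treated with vehicle or electrophile (500 µM) for 1 h at ambient temperature, then labelled with iodoacetamide alkyne (1 h), clicked to sCIP-TMT reagents, pooled, digested with trypsin overnight at 37 °C, enriched on streptavidin and eluted with acid. Peptides were analysed by Orbitrap Eclipse LC-MS/MS with FAIMS and quantified in FragPipe, using duplicate channels and three replicates, with cysteines quantified in only one replicate excluded. The log2 competition ratio for each cysteine is the mean control-channel reporter intensity divided by the mean compound-channel reporter intensity.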

Amino acid sequences for entries named in this document (tags omitted). A change or cut given only in a name is not applied to a line headed by its entry.
UniProt Q8IWC1: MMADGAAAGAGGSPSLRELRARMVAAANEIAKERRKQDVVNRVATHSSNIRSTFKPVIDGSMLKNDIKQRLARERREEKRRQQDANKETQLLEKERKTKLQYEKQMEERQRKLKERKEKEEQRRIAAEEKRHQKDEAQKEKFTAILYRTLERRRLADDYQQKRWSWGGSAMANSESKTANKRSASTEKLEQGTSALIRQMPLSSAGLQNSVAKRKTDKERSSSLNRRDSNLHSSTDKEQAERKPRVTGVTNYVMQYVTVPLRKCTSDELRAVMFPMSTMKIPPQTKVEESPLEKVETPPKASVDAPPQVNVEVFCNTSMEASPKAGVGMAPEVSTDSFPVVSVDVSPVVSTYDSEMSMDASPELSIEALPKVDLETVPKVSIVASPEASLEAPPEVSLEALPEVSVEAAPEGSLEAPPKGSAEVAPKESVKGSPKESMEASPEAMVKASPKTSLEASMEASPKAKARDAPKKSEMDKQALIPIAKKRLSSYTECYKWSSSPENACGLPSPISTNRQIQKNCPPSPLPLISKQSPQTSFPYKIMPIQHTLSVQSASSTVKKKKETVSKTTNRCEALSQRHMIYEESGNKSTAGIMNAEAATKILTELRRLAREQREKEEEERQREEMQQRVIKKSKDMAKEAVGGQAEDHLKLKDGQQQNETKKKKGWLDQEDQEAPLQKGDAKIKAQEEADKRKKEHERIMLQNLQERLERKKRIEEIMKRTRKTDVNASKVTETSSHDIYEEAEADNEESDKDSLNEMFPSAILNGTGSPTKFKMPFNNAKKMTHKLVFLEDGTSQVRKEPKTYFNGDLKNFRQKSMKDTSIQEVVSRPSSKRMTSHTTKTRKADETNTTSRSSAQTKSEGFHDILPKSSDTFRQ
UniProt Q7RTV0, whole entry, looked up: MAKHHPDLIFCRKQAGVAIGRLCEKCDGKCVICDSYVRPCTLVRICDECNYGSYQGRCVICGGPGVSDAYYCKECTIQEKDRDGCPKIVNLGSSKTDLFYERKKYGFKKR
UniProt Q7LBC6: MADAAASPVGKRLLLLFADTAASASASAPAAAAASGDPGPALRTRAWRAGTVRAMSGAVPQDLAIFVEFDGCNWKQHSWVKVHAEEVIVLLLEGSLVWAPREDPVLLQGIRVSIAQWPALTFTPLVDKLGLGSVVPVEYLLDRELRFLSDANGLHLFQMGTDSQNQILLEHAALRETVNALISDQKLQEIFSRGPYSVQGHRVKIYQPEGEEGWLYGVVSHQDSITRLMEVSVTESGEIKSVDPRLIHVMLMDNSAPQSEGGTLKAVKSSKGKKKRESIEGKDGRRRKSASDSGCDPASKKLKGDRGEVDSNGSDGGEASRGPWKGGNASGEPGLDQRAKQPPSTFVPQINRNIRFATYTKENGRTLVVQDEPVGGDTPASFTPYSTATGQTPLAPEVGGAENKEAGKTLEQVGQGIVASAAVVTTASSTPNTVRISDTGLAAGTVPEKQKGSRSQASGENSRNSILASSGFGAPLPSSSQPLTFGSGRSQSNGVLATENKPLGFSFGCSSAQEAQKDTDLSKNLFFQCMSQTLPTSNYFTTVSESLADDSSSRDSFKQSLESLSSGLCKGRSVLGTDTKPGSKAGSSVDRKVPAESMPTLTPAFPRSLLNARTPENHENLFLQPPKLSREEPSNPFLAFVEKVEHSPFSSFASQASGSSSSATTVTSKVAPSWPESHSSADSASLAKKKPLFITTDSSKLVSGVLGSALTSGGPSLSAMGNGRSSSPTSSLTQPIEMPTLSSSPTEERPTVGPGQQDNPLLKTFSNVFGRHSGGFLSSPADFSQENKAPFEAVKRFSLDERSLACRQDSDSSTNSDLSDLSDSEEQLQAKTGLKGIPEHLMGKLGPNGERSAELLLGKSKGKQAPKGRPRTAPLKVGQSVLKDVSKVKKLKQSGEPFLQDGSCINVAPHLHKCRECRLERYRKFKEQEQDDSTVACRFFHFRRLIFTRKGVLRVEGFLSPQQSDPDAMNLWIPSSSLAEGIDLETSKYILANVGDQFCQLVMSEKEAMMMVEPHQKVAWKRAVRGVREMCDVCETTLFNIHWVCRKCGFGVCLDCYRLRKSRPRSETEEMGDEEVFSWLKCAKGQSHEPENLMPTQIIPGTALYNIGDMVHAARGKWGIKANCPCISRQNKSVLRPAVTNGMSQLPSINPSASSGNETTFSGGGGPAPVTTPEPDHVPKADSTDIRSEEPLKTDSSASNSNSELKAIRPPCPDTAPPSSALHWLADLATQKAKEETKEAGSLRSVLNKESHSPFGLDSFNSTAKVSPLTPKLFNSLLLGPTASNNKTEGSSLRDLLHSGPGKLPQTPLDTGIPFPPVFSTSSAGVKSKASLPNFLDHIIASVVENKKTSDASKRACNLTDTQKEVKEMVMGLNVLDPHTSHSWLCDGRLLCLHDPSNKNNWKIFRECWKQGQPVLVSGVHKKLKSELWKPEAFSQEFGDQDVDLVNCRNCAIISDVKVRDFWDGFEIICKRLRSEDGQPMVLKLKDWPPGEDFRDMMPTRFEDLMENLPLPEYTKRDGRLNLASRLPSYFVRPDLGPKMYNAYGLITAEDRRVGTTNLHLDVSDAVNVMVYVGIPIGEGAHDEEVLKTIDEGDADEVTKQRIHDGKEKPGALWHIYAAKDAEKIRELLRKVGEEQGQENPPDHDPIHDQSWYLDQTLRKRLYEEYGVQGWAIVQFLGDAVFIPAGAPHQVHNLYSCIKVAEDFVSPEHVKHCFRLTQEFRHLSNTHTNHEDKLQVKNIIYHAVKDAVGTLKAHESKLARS
UniProt Q7Z2W4: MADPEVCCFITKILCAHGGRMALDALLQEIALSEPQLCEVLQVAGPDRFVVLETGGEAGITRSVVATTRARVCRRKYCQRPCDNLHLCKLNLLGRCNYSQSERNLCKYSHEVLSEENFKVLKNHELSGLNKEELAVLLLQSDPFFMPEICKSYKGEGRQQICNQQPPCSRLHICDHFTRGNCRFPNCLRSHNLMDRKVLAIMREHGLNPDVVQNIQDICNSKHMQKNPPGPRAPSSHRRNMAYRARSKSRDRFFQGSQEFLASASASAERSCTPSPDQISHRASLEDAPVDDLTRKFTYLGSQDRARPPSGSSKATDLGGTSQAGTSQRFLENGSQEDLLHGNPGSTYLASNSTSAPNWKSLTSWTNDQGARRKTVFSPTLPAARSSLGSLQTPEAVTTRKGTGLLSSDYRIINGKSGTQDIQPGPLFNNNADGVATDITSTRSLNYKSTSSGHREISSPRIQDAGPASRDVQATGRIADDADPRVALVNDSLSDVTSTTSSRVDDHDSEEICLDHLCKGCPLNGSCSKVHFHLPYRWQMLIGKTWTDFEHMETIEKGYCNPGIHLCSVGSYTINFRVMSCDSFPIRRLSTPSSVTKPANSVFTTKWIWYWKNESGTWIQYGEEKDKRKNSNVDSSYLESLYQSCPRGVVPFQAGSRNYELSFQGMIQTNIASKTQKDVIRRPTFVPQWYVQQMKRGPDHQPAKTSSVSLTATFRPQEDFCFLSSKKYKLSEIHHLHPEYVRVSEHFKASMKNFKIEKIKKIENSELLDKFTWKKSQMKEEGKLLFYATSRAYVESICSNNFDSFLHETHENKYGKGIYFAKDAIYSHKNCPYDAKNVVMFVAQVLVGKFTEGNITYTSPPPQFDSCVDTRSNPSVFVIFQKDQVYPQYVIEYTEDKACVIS
UniProt Q7L0Y3: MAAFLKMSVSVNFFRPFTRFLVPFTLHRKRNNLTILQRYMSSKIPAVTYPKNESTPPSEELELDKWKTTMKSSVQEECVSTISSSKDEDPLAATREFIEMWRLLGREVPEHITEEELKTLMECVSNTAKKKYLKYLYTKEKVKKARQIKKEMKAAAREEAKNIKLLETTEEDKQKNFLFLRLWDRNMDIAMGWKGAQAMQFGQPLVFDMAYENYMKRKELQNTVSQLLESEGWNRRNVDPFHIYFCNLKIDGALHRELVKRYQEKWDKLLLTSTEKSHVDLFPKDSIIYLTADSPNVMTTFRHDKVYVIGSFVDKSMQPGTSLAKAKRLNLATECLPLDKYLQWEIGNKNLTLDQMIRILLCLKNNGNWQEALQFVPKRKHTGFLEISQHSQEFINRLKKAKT
UniProt Q7Z2K8: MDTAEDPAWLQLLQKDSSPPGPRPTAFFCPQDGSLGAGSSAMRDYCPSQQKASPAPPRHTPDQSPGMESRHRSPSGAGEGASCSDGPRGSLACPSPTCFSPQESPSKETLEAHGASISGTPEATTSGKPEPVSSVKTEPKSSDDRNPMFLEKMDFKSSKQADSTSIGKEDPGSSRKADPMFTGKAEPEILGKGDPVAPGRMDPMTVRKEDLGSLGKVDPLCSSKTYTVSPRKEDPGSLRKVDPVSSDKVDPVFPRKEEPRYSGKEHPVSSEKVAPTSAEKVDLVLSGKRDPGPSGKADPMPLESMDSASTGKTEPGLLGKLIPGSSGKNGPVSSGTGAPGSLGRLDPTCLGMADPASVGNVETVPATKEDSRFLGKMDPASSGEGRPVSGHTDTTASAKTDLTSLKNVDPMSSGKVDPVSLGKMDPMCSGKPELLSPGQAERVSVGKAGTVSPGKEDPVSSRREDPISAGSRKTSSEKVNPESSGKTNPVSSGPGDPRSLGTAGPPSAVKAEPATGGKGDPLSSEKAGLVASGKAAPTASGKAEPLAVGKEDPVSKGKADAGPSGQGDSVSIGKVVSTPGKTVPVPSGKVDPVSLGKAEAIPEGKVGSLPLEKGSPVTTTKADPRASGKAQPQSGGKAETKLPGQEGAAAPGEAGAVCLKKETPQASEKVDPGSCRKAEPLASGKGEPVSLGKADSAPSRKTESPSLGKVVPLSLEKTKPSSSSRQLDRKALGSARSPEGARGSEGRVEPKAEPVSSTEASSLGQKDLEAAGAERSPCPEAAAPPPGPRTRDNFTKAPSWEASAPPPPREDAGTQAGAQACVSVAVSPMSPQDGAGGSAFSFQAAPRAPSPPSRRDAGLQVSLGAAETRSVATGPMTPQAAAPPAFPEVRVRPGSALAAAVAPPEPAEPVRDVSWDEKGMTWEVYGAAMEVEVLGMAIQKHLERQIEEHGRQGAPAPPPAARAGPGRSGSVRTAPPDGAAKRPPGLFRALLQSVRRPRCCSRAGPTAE
UniProt Q7Z2T5: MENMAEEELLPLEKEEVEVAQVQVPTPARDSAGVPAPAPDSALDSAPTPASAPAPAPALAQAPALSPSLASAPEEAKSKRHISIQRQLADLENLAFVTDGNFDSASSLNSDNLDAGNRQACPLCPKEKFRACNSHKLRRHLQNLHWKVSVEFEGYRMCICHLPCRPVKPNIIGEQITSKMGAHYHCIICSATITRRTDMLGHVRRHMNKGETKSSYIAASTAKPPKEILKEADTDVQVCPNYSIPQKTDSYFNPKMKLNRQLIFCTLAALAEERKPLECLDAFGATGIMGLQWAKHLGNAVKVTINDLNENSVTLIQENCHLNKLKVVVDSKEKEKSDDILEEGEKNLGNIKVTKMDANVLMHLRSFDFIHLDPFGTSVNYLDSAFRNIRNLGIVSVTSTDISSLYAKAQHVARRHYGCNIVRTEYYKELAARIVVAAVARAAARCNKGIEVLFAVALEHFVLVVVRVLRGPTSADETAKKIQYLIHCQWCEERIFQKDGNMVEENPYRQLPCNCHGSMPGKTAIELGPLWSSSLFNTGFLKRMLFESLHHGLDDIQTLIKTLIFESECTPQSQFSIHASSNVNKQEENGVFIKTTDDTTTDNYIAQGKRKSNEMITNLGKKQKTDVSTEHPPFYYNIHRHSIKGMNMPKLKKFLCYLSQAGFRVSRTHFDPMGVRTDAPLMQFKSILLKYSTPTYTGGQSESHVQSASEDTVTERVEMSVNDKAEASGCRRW
UniProt Q7Z4Q2: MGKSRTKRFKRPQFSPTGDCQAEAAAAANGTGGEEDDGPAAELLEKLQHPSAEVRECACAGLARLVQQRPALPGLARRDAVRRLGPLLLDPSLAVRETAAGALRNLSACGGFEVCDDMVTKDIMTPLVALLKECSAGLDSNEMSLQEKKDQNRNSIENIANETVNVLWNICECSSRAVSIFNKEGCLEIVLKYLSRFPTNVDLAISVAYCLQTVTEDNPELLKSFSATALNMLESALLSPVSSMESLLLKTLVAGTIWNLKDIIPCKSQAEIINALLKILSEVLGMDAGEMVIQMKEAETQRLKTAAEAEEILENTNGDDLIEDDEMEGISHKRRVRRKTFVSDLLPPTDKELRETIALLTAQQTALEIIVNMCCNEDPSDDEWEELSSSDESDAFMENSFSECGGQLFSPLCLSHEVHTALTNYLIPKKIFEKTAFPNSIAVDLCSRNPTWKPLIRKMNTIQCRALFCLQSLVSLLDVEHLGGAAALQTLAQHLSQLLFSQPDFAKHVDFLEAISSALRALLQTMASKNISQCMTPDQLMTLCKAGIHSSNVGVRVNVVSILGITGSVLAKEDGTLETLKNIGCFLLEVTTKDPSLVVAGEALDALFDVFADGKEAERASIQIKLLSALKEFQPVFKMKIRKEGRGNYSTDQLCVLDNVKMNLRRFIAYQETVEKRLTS

| Target | log2 ratio of iodoacetamide-alkyne labeling |
| --- | --- |
| LUZP1 C969 (UniProt Q86V48) | inactive: 0.0823 |
| PHLDB2 C385 (UniProt Q86SQ0) | inactive: 0.447 |
| SCD5 C14 (UniProt Q86SK9) | inactive: 0.247 |
| MAP7D3 C505 (UniProt Q8IWC1) | inactive: 0.288 |
| UBR1 C1603 (UniProt Q8IWV7) | inactive: 0.174 |
| UniProt Q7RTV0_C11 | inactive: 0.063 |
| ISCA2 C144 (UniProt Q86U28) | inactive: 0.503 |
| TBC1D1 C1160 (UniProt Q86TI0) | inactive: 0.518 |
| CAND1 C571 (UniProt Q86VP6) | inactive: 0.109 |
| UniProt Q7LBC6_C1470 | inactive: 0.156 |
| UniProt Q7Z2Z2_C604 | inactive: -0.126 |
| ZC3HAV1 C162 (UniProt Q7Z2W4) | inactive: 0.0769 |
| UniProt Q7L0Y3_C123 | inactive: -0.142 |
| GPRIN1 C221 (UniProt Q7Z2K8) | inactive: 0.0979 |
| FTSJ3 C577 (UniProt Q8IY81) | inactive: 0.082 |
| UniProt Q7LBC6_C1212 | inactive: 0.164 |
| DHX37 C766 (UniProt Q8IY37) | inactive: 0.114 |
| ZC3HAV1 C38 (UniProt Q7Z2W4) | inactive: -0.145 |
| UniProt Q7LBC6_C569 | inactive: 0.458 |

Reformatted with tabs: entries from further up
Target	log2 ratio of iodoacetamide-alkyne labeling
UBR1 C1603 (UniProt Q8IWV7)	inactive: 0.174
UniProt Q7RTV0_C11	inactive: 0.063
ISCA2 C144 (UniProt Q86U28)	inactive: 0.503

Following part

| Target | log2 ratio of iodoacetamide-alkyne labeling |
| --- | --- |
| PHF6 C28 (UniProt Q8IWS0) | inactive: 0.202 |
| UniProt Q7Z2T5_C320 | inactive: 0.31 |
| GCC2 C297 (UniProt Q8IWJ2) | inactive: 0.295 |
| CEP97 C336 (UniProt Q8IW35) | inactive: 0.711 |
| UniProt Q86Y56_C841 | inactive: -0.0103 |
| UniProt Q86UD0_C195 | inactive: 0.264 |
| SND1 C826 (UniProt Q7KZF4) | inactive: 0.164 |
| DHX40 C42 (UniProt Q8IX18) | inactive: 0.339 |
| HEATR3 C173 (UniProt Q7Z4Q2) | inactive: -0.115 |
| PBRM1 C450 (UniProt Q86U86) | inactive: 0.0266 |
| UniProt Q7Z2T5_C239 | inactive: 0.338 |
| UniProt Q7LBC6_C1448 | inactive: -0.0343 |
| PDSS2 C71 (UniProt Q86YH6) | inactive: 0.412 |
| ELMOD2 C285 (UniProt Q8IZ81) | inactive: 0.0321 |
| HPS6 C695 (UniProt Q86YV9) | inactive: 0.0423 |
| PHF6 C212 (UniProt Q8IWS0) | inactive: 0.0185 |
| UniProt Q8IYB1_C16 | inactive: 0.141 |
| UniProt Q7RTV0_C40 | inactive: 0.138 |
